# Screen size: about 390,000 compounds; about 4,000 (1%) were called active. Inconclusive means that the source gave no clear call. Such entries were picked first, then a sample of the others. Calls follow the shape of the dose curve; as a rule, active = well fitted inhibition curve with a large enough effect; inconclusive = small, poorly fitted or top-dose-only effect, or another doubt; inactive = no such curve, though single readings can be large or run the other way. Potencies beside an inconclusive call are fits to weak or partial responses and may not hold up.
# Chains of the proteins cited; added tags and fusions are not shown. Lines headed by an entry give the natural chain unless they say otherwise; changes in a name come on top.
# UniProt Q9UNA4: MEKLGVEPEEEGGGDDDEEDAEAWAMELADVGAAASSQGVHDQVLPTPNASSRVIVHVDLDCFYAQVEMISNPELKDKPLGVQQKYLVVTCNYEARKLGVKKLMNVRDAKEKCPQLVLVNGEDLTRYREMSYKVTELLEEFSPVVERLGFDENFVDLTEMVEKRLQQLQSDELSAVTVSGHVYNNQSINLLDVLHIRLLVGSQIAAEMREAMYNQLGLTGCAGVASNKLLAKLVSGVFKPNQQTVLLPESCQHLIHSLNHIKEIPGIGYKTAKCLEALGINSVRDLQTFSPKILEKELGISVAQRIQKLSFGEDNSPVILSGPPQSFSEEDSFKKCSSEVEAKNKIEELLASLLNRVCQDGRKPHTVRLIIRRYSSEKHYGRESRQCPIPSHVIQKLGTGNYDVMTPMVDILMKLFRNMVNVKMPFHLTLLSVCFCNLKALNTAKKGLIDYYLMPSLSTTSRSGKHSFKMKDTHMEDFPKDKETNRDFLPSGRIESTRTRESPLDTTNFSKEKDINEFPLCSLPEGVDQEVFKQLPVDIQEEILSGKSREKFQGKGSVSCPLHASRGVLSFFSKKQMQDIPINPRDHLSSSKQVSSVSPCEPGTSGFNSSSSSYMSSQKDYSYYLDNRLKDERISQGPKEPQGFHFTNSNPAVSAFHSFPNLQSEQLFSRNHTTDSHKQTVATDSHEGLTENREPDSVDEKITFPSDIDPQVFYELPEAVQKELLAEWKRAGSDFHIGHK
# Biological target: DNA polymerase iota (Homo sapiens) (UniProt Q9UNA4)
# Test: qHTS for Inhibitors of Polymerase Iota
# Conditions: Pol iota fluorescent replication assay, 10 min; series mostly up to 115 µM; activity, negative = inhibition: at the top concentration
# Outline: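 Pol iota at 10 nM preincubated 15 min with compounds at room temperature; reaction started with fluorescent substrate, 50 nM final. Fluorescence read kinetically at 0 and 10 min; buffer-only wells as negative control.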
# Potency is read from the fitted curve at half-maximal effect.
Compound,Potency,"activity, negative = inhibition"
CC(OC(=O)c1cc(O)c2ccccc2c1O)C(=O)Nc1ccc(C(N)=O)cc1 (stereo unspecified),"inconclusive: 15.8 µM [inhibitor, full curve, poor fit]",–
Oc1cc2c(cc1O)[C@H]1c3ccc(O)c(O)c3OC[C@@]1(O)C2,active: 7.94 µM,–
Cc1c(C(=O)Nc2ccc(F)cc2F)oc2ccc3c(c12)C(=O)CC(C)(C)O3,–,inactive: 22.1%
Cc1ccc(NC2=NCC(=O)N2c2ccc3c(c2)OCCO3)c(C)c1,"inconclusive: 35.5 µM [inhibitor, single point]",–
O=C(Nc1nnc(-c2ccc(Cl)cc2)o1)Nc1ccccc1Cl,–,inactive: 5.42%
CC(=O)N1CCN(C(=O)CCC(=O)O)CC1,"inconclusive: 79.4 µM [inhibitor, single point]",–
Cc1ccc(NC(=O)CNC(=O)c2ccccc2F)cc1Cl,"inconclusive: 7.08 µM [inhibitor, partial curve]",–
CS(=O)(=O)c1nc(-c2ccc(F)cc2)cc(C(F)(F)F)n1,"inconclusive: 25.1 µM [inhibitor, single point]",–
Cc1ccc(S(=O)(=O)Oc2cccc(/C=N/n3cnnc3)c2)cc1,–,inactive: 1.34%
O=C(NCCc1cccs1)c1ccc(Cn2c(SCc3ccccc3)nc3cccnc32)cc1,"inconclusive: 79.4 µM [inhibitor, partial curve, poor fit]",–
CCOc1ccc(NC(=S)Nc2ccc3nsnc3c2)cc1,active: 10 µM,–
Cc1ccc(N(Cc2cccs2)C(=O)Nc2cccc(Cl)c2)cc1,–,inactive: 10.6%
Cc1ccc(CNC(=O)c2c(O)nc3ccccn3c2=O)cc1,–,inactive: 34.6%
COc1ccc(-n2ccc3ccccc32)cc1,"inconclusive: 17.8 µM [inhibitor, single point]",–
COc1cccc(/C=C(/C#N)c2nc3ccccc3[nH]2)c1OC(C)C(=O)O (stereo unspecified),–,inactive: -0.0285%
COc1ccc2c(c1OC)C(=O)OC2Nc1nc(-c2cc3cc(Br)ccc3oc2=O)cs1 (stereo unspecified),"inconclusive: 22.4 µM [inhibitor, full curve]",–
CCOC(=O)C(C)(C)Sc1nc2c(cnn2-c2ccc(C)cc2)c(=O)[nH]1,"inconclusive: 39.8 µM [inhibitor, single point]",–
COc1cc(C2NC(=O)C(C#N)=C(S)N2c2ccc(C)cc2)ccc1OC(C)C (stereo unspecified),"inconclusive: 5.01 µM [inhibitor, full curve, poor fit]",–
O=S(=O)(N/N=C\c1c(F)cccc1Cl)c1ccc(Cl)cc1,"inconclusive: 22.4 µM [inhibitor, partial curve, poor fit]",–
Cc1ccc(C(=O)N/C(=C\c2cn(-c3ccccc3)nc2-c2ccccc2)C(=O)N2CCOCC2)cc1,"inconclusive: 70.8 µM [inhibitor, single point]",–
CCOC(=O)c1[nH]c2c(c1-c1ccccc1)C(=O)CC(c1ccc(Cl)cc1)C2 (stereo unspecified),"inconclusive: 12.6 µM [inhibitor, full curve, poor fit]",–
Cc1cc(C)nc(Nc2cccc(C(F)(F)F)c2)n1,"inconclusive: 20 µM [inhibitor, partial curve, poor fit]",–

Compound,Potency,"activity, negative = inhibition"
O=C(CN1C(=O)c2ccccc2S1(=O)=O)Nc1ncccn1,–,inactive: 69.6%
Cc1cc(C(=O)N/N=C/c2ccco2)n[nH]1,–,inactive: 47.4%
COC(=O)c1ccccc1-c1ccc(C(c2c(C)[nH][nH]c2=O)c2c(C)[nH][nH]c2=O)o1,active: 7.94 µM,–
O=C(CN1C(=O)C2C3CCC(C3)C2C1=O)NCc1ccco1 (stereo unspecified),"inconclusive: 89.1 µM [inhibitor, single point]",–
CCn1c2ccccc2c2nnc(SCc3ccccc3)nc21,"inconclusive: 39.8 µM [inhibitor, single point]",–
CC(=O)Nc1ccc(SCC(=O)NC(=O)c2ccccc2Br)cc1,"inconclusive: 100 µM [inhibitor, single point]",–
COc1ccccc1-n1cnnc1SCC(=O)NCc1cccs1,–,inactive: 0.0896%
Cc1ccc(S(=O)(=O)N2[C@@H](c3cccc(Cl)c3)C(C(=O)O)=CC[C@H]2c2ccc(Cl)c(Cl)c2)cc1,"inconclusive: 79.4 µM [inhibitor, partial curve, poor fit]",–
OC1(c2ccccc2)CC(c2ccccc2)c2ccccc2O1 (stereo unspecified),"inconclusive: 79.4 µM [inhibitor, single point]",–
CCOc1ccccc1C(=O)Nc1ccc2c(c1)C(=O)NC2=O,–,inactive: 120%
Cc1sc(C(C2C(=O)CC(C)(C)CC2=O)C2C(=O)CC(C)(C)CC2=O)cc1[N+](=O)[O-],active: 15.8 µM,–
O=C(NN1C(=O)CSC1=S)C(=O)NN1C(=O)CSC1=S,"inconclusive: 1 µM [inhibitor, full curve, poor fit]",–
Cc1ccc(OCC(=O)Nc2sc3c(c2C#N)CCC3)cc1C,"inconclusive: 22.4 µM [inhibitor, single point]",–
CC(C)Oc1ccc(C2CC(=O)N(c3ccc(N(C)C)cc3)C2=O)cc1 (stereo unspecified),"inconclusive: 39.8 µM [inhibitor, full curve, poor fit]",–
Cc1cc(C)c(S(=O)(=O)Nc2ccc(O)cc2)cc1C,–,inactive: 8.08%
CCOC(=O)C1=C(CS(=O)(=O)c2ccc(C(C)(C)C)cc2)NC(=O)NC1c1cccc(OC)c1 (stereo unspecified),"inconclusive: 89.1 µM [inhibitor, partial curve, poor fit]",–
CCNC(=S)N/N=C/c1ccc(OCCOc2ccccc2C)cc1,"inconclusive: 89.1 µM [inhibitor, single point]",–
COc1ccc(S(=O)(=O)CC(=O)c2cc3cccc(C)c3oc2=O)cc1,"inconclusive: 11.2 µM [inhibitor, partial curve, poor fit]",–
CC[C@]1(C(=O)OC)[C@H]2C(=O)N(Cc3ccccc3)C(=O)[C@H]2[C@H]2CN=C(SCc3ccccc3)N21,"inconclusive: 15.8 µM [inhibitor, partial curve, poor fit]",–
O=C(Oc1cccnc1)c1ccc(Cl)c(Cl)c1,"inconclusive: 28.2 µM [inhibitor, single point]",–
Cc1occc1-c1nnc(SCC(=O)NC2CCCCC2C)o1 (stereo unspecified),–,inactive: 18.3%
O=C(CSc1nc(=O)n2cc(Cl)ccc2n1)NCCc1ccccc1,"inconclusive: 17.8 µM [inhibitor, full curve]",–

# Quoted at random: 2 records from the list.
Compound,Potency,"activity, negative = inhibition"
COc1ccccc1-n1cnnc1SCC(=O)NCc1cccs1,–,inactive: 0.0896%
Cc1sc(C(C2C(=O)CC(C)(C)CC2=O)C2C(=O)CC(C)(C)CC2=O)cc1[N+](=O)[O-],active: 15.8 µM,–

# Further compounds.

Compound,Potency,"activity, negative = inhibition"
CCOc1ccc(NC(=O)COc2ccc(S(=O)(=O)N3CCOCC3)cc2)cc1,"inconclusive: 79.4 µM [inhibitor, partial curve, poor fit]",–
Cc1c(C(=O)Nc2cccc(C(F)(F)F)c2)oc2ccc(S(=O)(=O)N3CCC4(CC3)OCCO4)cc12,–,inactive: 3.24%
C=CCN1C(=O)C(O)=C(C(C)=O)C1c1ccccc1F (stereo unspecified),"inconclusive: 10 µM [inhibitor, partial curve, poor fit]",–
CCCCn1c(=O)c(CCC(=O)OC(C)C(=O)Nc2cccc(Cl)c2Cl)nc2ccccc21 (stereo unspecified),"inconclusive: 89.1 µM [inhibitor, single point]",–
CC1(C)C(=O)Nc2ccccc2N1C(=O)COC(=O)c1cc(S(=O)(=O)N2CCOCC2)ccc1F,active: 39.8 µM,–
Cc1[nH]c2ccccc2c1/C=C/C(=O)c1ccncc1,"inconclusive: 31.6 µM [inhibitor, partial curve, poor fit]",–
COC(=O)N1CCN(c2ccc(C(C)=O)cc2)CC1,"inconclusive: 89.1 µM [inhibitor, single point]",–
COc1cccc2nc3cc(C)c(C)cc3nc12,"inconclusive: 70.8 µM [inhibitor, single point]",–
CCOc1cccc(CN2CCCC(C(=O)c3cc(Cl)ccc3OC)C2)c1O (stereo unspecified),"inconclusive: 39.8 µM [inhibitor, partial curve, poor fit]",–
O=C(CSc1nc2c(c(=O)n1-c1ccc(Cl)cc1)SCC2)NCc1ccco1,"inconclusive: 39.8 µM [inhibitor, single point]",–
COc1cc(OC)c(N(C)C(=O)c2cn(C)c(=O)c3cc(OC)c(OC)cc23)cc1Cl,"inconclusive: 70.8 µM [inhibitor, single point]",–
O=C(Nc1nc2c(F)cc(F)cc2s1)c1ccc2c(c1)OCCO2,–,inactive: 26.6%
O=C(CN1C(=O)COc2ccc(S(=O)(=O)N3CCOCC3)cc21)Nc1ccc(F)c(Cl)c1,–,inactive: 11.8%
CC1CCc2c(sc(NC(=O)c3ccc(Cn4cc([N+](=O)[O-])cn4)o3)c2C#N)C1 (stereo unspecified),"inconclusive: 7.94 µM [inhibitor, full curve, poor fit]",–
Cc1ccc(NC(=O)c2nc[nH]c2C(=O)NCC(=O)OC(C)(C)C)cc1,"inconclusive: 56.2 µM [inhibitor, partial curve, poor fit]",–
Cc1ccc(Cl)cc1N1CCN(S(=O)(=O)c2ccc3[nH]c(=O)c(=O)[nH]c3c2)CC1,"inconclusive: 20 µM [inhibitor, partial curve, poor fit]",–
Cc1cc(-c2nc3ncccc3o2)ccc1NC(=S)NC(=O)C(C)C,"inconclusive: 89.1 µM [inhibitor, single point]",–
CCOC(=O)c1cnc2nc[nH]n2c1=O,"inconclusive: 39.8 µM [inhibitor, full curve, poor fit]",–
O=S(=O)(c1ccc(-c2n[nH]c(=S)o2)cc1)N1CCCCC1,–,inactive: 43.8%
O=C(COc1cccc(F)c1)Nc1nc(-c2ccncc2)cs1,"inconclusive: 31.6 µM [inhibitor, single point]",–
C#CCOCCOCCOCCNc1nc(N2CCOCC2)nc(N2CCN(C(=O)[C@H](Cc3cc4ccccc4[nH]3)n3cc([C@@H](N)Cc4ccc(O)cc4)nn3)CC2)n1,"inconclusive: 1.41 µM [inhibitor, full curve, poor fit]",–
Cc1cc2c(N)cccc2nn1,active: 5.62 µM,–

# Gathered by group, those above containing an aryl methoxy group
Compound,Potency,"activity, negative = inhibition"
COc1ccc(-n2ccc3ccccc32)cc1,"inconclusive: 17.8 µM [inhibitor, single point]",–
COc1cccc(/C=C(/C#N)c2nc3ccccc3[nH]2)c1OC(C)C(=O)O (stereo unspecified),–,inactive: -0.0285%
COc1ccc2c(c1OC)C(=O)OC2Nc1nc(-c2cc3cc(Br)ccc3oc2=O)cs1 (stereo unspecified),"inconclusive: 22.4 µM [inhibitor, full curve]",–
COc1cc(C2NC(=O)C(C#N)=C(S)N2c2ccc(C)cc2)ccc1OC(C)C (stereo unspecified),"inconclusive: 5.01 µM [inhibitor, full curve, poor fit]",–
COc1ccccc1-n1cnnc1SCC(=O)NCc1cccs1,–,inactive: 0.0896%
CCOC(=O)C1=C(CS(=O)(=O)c2ccc(C(C)(C)C)cc2)NC(=O)NC1c1cccc(OC)c1 (stereo unspecified),"inconclusive: 89.1 µM [inhibitor, partial curve, poor fit]",–
COc1ccc(S(=O)(=O)CC(=O)c2cc3cccc(C)c3oc2=O)cc1,"inconclusive: 11.2 µM [inhibitor, partial curve, poor fit]",–
COc1cccc2nc3cc(C)c(C)cc3nc12,"inconclusive: 70.8 µM [inhibitor, single point]",–
CCOc1cccc(CN2CCCC(C(=O)c3cc(Cl)ccc3OC)C2)c1O (stereo unspecified),"inconclusive: 39.8 µM [inhibitor, partial curve, poor fit]",–
COc1cc(OC)c(N(C)C(=O)c2cn(C)c(=O)c3cc(OC)c(OC)cc23)cc1Cl,"inconclusive: 70.8 µM [inhibitor, single point]",–

# Reference: PubChem BioAssay AID588590 (National Center for Advancing Translational Sciences (NCATS), 2011)
